Assay results: patent US6673770B1, “Peptides for the treatment, prophylaxis, diagnosis and monitoring of autoimmune diseases” (Upither B.V., priority 1998, dated 2004)
Part of at least one peptide drawing is inferred or uncertain, most often the ends. Ends that are not written are not given here. Peptide text beside a SMILES is read from it.

The compounds below were run on peripheral blood lymphocytes (PBL) of RA/JCA patients (assay: 6-days proliferation assay on PBLs of RA and JCA patients). Details: number of patients with PBL proliferation >2 times background; 15-mers at 1 μg/ml and 10 μ/ml.
Format: cell-based, human
Experimental: T-cell responses to the selected peptides in patients are analysed by studying T-cell proliferation of peripheral blood lymphocytes (PBL) and synovial fluid derived cells. […] In these human studies the peptides are tested as 15-mers containing the 9-mer sequence of Table 2 as core sequence. […] This is further strengthened by the fact that, the patients were not selected for having a certain MHC haplotype. The MHC binding affinity of the selected peptides is analysed for the most-common MHC class II-arthritis associations. In Table 3 the peptide binding affinity for DRB1*0401 is shown as an example. The peptide binding affinity is tested in a MHC-peptide competition assay on isolated MHC molecules in the presence of a labelled marker peptide. The fact that of the n=12 peptides selected for binding to the rat DQ equivalent RT1.B^1, n=11 peptides also bind DRB1*0401, further confirms the promiscuous MHC binding of the selected peptides. This ensures a wide applicability of the peptides for prophylaxis, treatment, monitoring and/or diagnosis of the disease.
^ Indicated are the numbers of patients responding to tire peptides as defined in a 6-days proliferation assay on PBLs. Responses were considered positive if the proliferation (as measured by ^3H-thymidine incorporation) was >2 times background proliferation. Peptides were tested in concentrations of 1 μg/ml and 10 μ/ml.

Compound	JCA patients responding (n = 6 tested)	RA patients responding (n = 39 tested)
CC(C)C[C@H](NC(=O)[C@H](CCC(=O)O)NC(=O)[C@H](CC(=O)O)NC(=O)[C@@H](NC(=O)[C@@H]1CCCN1C(=O)[C@@H](NC(=O)CNC(=O)[C@H](CO)NC(=O)CNC(=O)CNC(=O)[C@@H](N)CC(C)C)[C@@H](C)O)C(C)C)C(=O)N[C@@H](CC(=O)O)C(=O)N[C@@H](CCCCN)C(=O)N[C@@H](CS)C(=O)N[C@@H](CS)C(=O)O [SEQ ID NO: 79, LGGSGTPVDELDKCC] (H-LGGSGTPVDELDKCC-OH)	1	1
EDLVGSASGDLDLGK [SEQ ID NO: 75, EDLVGSASGDLDLGK]	2	2
MTSLKSVNGQIESLI [SEQ ID NO: 78, MTSLKSVNGQIESLI]	–	3
QGTIDTAVLHLDTNL [SEQ ID NO: 72, QGTIDTAVLHLDTNL]	2	4
QLLGVSASVPVEHRD [SEQ ID NO: 76, QLLGVSASVPVEHRD]	–	2
QPLVQTAVTNIDRPK [SEQ ID NO: 77, QPLVQTAVTNIDRPK]	–	3
SYRLRSPVISIDPPS [SEQ ID NO: 74, SYRLRSPVISIDPPS]	1	3
TTTVSSFSLNVEYAI [SEQ ID NO: 80, TTTVSSFSLNVEYAI]	1	4
